Assay results from the supplement of paper PMC8728848.
The other results are listed elsewhere or left out.

Columns and labels:
[1] = target: Neu5Gc(a2-8)Neu5Gc(a2-6)Gal(b1-4)GlcNAc; assay: glycan array binding signal (z-score within array); higher = stronger binding; conditions: glycan notation: IUPAC condensed, linker removed
Method in brief: (§1)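 Glycan array binding is given as a within-array Z-score, which can be read as non-binding when negative. The arrays, 3228 of them, came from the Consortium for Functional Glycomics database and were retained only where the protein sequence was available. Z-scores were averaged across arrays of the same protein sequence at different concentrations or buffers and across linkers.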

[2] = target: Neu5Gc(b2-6)Gal(b1-4)GlcNAc; assay: as above; conditions: glycan notation: IUPAC condensed, linker removed
Method in brief: as §1

B1: Langerin K299A/K313A (Homo sapiens), Q9UJ71 (protein)
chain: STLNAQIPELKSDLEKASALNTKIRALQGSLENMSKLLKRQNDILQVVSQGWKYFKGNFYYFSLIPKTWYSAEQFCVSRNSHLTSVTSESEQEFLYKTAGGLIYWIGLTKAGMEGDWSWVDDTPFNKVQSARFWIPGEPNNAGNNEHCGNIAAPSLQAWNDAPCDATFLFICKRPYVPSEP
glycan array binding signal (z-score) [1]: -1.17
glycan array binding signal (z-score) [2]: -1.08
